Data: article PMC12209112
Read-outs that look alike come from different tables or passages of the source. No constants are given. Whether binding was seen depends on the method and setting. Binding seen in cells or lysates may run through a third protein. These calls come from enrichment with a bait or labelling near it, and not all partners need be listed.

Protein sequences, listed by entry. Tags and fused reporters are not part of them. Residues count along the entry.
UniProt P35465: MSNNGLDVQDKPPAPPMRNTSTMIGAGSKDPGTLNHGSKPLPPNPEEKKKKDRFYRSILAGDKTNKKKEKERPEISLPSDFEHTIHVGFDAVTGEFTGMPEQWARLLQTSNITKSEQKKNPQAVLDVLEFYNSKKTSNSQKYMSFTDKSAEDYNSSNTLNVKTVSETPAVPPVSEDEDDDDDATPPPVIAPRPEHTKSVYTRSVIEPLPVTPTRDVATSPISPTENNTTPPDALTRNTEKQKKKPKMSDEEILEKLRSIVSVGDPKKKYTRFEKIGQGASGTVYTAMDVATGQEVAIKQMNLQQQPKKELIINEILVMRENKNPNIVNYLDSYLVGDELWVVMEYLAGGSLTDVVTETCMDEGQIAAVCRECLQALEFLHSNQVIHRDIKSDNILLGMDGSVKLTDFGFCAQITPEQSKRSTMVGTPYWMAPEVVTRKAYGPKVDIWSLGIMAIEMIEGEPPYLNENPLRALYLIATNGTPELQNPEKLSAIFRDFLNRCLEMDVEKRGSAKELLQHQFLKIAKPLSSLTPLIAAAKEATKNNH
UniProt P20786, residues 24-1088: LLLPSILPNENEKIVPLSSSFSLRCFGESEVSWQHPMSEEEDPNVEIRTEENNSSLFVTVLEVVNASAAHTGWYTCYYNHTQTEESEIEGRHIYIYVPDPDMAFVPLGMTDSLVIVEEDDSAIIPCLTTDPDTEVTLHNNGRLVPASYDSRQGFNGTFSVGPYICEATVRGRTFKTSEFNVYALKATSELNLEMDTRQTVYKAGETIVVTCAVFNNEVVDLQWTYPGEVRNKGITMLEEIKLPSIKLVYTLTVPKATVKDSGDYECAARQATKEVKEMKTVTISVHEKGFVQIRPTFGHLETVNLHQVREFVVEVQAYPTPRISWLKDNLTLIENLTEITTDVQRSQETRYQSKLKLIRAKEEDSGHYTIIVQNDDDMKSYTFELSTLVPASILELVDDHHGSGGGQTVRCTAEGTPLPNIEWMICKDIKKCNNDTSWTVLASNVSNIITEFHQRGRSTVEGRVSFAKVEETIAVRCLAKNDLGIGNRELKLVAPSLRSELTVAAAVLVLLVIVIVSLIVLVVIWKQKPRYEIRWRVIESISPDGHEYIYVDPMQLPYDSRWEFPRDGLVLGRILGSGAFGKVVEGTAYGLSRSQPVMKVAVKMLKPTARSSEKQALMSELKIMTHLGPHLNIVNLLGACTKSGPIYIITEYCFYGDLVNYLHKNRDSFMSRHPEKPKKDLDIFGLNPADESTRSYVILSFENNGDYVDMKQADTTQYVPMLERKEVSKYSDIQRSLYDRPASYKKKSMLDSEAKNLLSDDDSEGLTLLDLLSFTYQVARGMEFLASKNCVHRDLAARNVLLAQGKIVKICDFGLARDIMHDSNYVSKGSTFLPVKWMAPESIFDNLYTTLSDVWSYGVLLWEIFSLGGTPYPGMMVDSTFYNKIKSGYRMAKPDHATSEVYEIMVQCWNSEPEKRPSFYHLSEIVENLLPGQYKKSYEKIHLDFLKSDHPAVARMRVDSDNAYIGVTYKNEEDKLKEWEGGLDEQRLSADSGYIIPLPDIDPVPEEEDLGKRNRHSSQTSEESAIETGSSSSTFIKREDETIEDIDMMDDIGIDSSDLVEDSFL
UniProt Q63570: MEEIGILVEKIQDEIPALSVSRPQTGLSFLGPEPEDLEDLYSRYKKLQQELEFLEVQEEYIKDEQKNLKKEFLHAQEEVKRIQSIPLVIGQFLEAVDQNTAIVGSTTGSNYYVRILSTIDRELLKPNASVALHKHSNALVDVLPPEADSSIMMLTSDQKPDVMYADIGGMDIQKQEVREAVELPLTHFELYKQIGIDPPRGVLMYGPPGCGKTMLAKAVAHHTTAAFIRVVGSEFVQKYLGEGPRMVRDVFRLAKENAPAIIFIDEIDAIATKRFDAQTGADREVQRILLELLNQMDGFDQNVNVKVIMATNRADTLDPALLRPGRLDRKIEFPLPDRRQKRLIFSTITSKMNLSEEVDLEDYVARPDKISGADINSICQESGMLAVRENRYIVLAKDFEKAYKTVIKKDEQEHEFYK
UniProt P62198: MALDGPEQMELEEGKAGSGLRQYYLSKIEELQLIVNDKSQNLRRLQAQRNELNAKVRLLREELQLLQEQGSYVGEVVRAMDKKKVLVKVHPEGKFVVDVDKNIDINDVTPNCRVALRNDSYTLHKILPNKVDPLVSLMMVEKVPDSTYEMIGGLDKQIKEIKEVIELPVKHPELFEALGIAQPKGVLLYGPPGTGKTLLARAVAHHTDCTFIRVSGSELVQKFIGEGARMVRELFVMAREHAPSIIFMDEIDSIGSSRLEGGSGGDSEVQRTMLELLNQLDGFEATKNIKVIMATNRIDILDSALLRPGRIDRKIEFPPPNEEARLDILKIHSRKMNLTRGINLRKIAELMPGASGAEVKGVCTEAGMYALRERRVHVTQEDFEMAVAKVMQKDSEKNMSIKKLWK

Legend:
[1] = target: p21-activated kinase 1 (PAK1) (rat (endogenous in primary rat OPCs)) (UniProt P35465); experiment: affinity purification with mass spectrometry; 1 mg lysate of primary rat OPCs or differentiating OLs incubated overnight at 4 °C with 10 µg PAK1 antibody (#2602) or rabbit IgG isotype control; Protein A/G magnetic beads; on-bead trypsin digestion; LC-MS/MS
[2] = target: p21-activated kinase 1 (PAK1) (rat (endogenous in primary rat OPCs)) (UniProt P35465); experiment: as above; remark: listed apart in the source

Molecule | binding [1] | binding [2]
PDGFRa (from UniProt P20786 24-1088) (receptor) | binds | –
Psmc4 (from UniProt Q63570 1-418) | binds | –

The next lines start with the values.

binding [1] | binding [2] | Molecule
binds | – | Psmc5 (from UniProt P62198 1-406)
– | binds | Xpnpep1 (protein, UniProt O54975 1-623) MAPKVTSELLRQLRQAMRNSECVAEPIQAYIIPSGDAHQSEYIAPCDCRRAFVSGFDGSAGTAIITEEHAAMWTDGRYFLQAAKQMDNNWTLMKMGLKDTPTQEDWLVSVLPEGSRVGVDPLIIPTDYWKKMAKVLRSAGHHLVPVKENLVDKIWTDRPERPCKPLLTLGLDYTGISWKEKVADLRLKMAERSIVWFVVTALDEIAWLFNLRGSDVEHNPVFFSYAIIGLERIMLFIDGDRIDAPGVKQHLLLDLGLEAEYKIQVLPYKSILSELKTLCADLSPREKVWVSDKASYAVSEAIPKDHRCCMPYTPICIAKAVKNSAESAGMRRAHIKDAVALCELFNWLEQEVPKGGVTEISAADKAEEFRRQQADFVDLSFPTISSTGPNGAIIHYAPIPETNRTLSLDEVYLIDSGAQYKDGTTDVTRTMHFGTPTAYEKECFTYVLKGHIAVSAAVFPTGTKGHLLDSFARSALWDSGLDYLHGTGHGVGSFLNVHEGPCGISYKTFSDEPLEAGMIVTDEPGYYEDGAFGIRIENVVLVVPAKTKYNFNNRGSLTFEPLTLVPIQTKMIDVDALTDKECDWLNSYHQTCRDVIGKELQTQGRQEALEWLLRETEPISRQH
